Experimental data: PubChem BioAssay AID504467 (National Center for Advancing Translational Sciences (NCATS), 2011)
Among all 330,000 compounds or so, about 7,700 (2.3%) were called active. Inconclusive means that the source gave no clear call. Such entries were picked first, then a sample of the others. Calls come from the whole dose curve; as a rule, active = well fitted inhibition curve with a large enough effect; inconclusive = small, poorly fitted or top-dose-only effect, or effect the other way; inactive = flat fitted curve, though single readings scatter. Potencies beside an inconclusive call are fits to weak or partial responses and may not hold up.

Assay: qHTS screen for small molecules that inhibit ELG1-dependent DNA repair in human embryonic kidney (HEK293T) cells expressing luciferase-tagged ELG1; note: nearly all actives have a fitted effect of over 55% in size
Details: HEK293T ELG1-luciferase reporter, luminescence, 16 h, DNA damage induced by 5-fluorouridine; activity change, negative = inhibition: at 46.1 µM (top of the series)
Outline: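 5-Fluorouridine DNA damage + compound/DMSO, 2,000 cells/well, 16 h, 37 °C/5% CO2. ONE-Glo, 30 min RT, luminescence. Readout = decrease in reporter signal.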
% is set by controls: 0 for no effect and ±100 for the full control effect; potency is the fitted concentration of half-maximal effect.

| Compound | Potency | activity change, negative = inhibition |
| --- | --- | --- |
| CCCC1CC(CSC(=N)N)OC1=O (stereo not drawn) | inconclusive: 13 µM [inhibitor, partial curve] |  |
| COc1ccc(S(=O)(=O)Cc2ccc(C(=O)O)o2)cc1 |  | inactive: -3.09% |
| Cc1ccc(C)c(C2=NNC(=NCc3ccccc3)SC2)c1 | inconclusive: 18.3 µM [inhibitor, single point] |  |
| COc1ccc(C2(CNC(=O)C(=O)Nc3ccc(C)cc3)CCOCC2)cc1 |  | inactive: 5.33% |
| CCS(=O)(=O)N1CCN(c2ccc(C(=O)N3CCOCC3)cc2[N+](=O)[O-])CC1 |  | inactive: -2.18% |
| N#CCSc1nc(-c2ccccc2)cs1 | inconclusive: 20.6 µM [activator, single point] |  |
| CC(=O)c1c(C)[nH]c(C(=O)CN2CCN(S(=O)(=O)c3ccccc3F)CC2)c1C | active: 11.6 µM |  |
| Cc1ccc(NC(=O)CSc2nc3ccccc3c(=O)n2CCCN2CCCCC2)cc1Cl |  | inactive: 15% |
| O=C(COC(=O)c1ccccc1NCc1ccco1)Nc1ccc2c(c1)OCO2 | inconclusive: 29.1 µM [activator, single point] |  |
| O=C(COc1ccc2c3c(c(=O)oc2c1)CCC3)N1CCCCC1 | inconclusive: 14.6 µM [activator, partial curve] |  |
| O=C(N/N=C/c1ccccc1)NC1CCCCC1 | inconclusive: 20.6 µM [activator, partial curve] |  |
| CCOC(=O)c1c(NC(C)=O)sc2c(OC)c(Br)ccc12 |  | inactive: -5.37% |
| CCCCn1c(=O)[nH]c(=O)c2c(C(=O)OCC)cc(-c3cccs3)nc21 | inconclusive: 29.1 µM [inhibitor, single point] |  |
| CC(=O)Nc1cc2nn(-c3ccccc3)nc2cc1C | inconclusive: 1.58 µM [activator, full curve] |  |
| COc1ccccc1/C=N/N1CCN(c2ccc(Cl)cc2)CC1 |  | inactive: -14.3% |
| COc1ccc(OCCNc2cc(N3CCOCC3)ccc2[N+](=O)[O-])cc1 | inconclusive: 25.9 µM [inhibitor, single point] |  |
| Clc1cccc(-c2cc3nc4c(c(N5CCNCC5)n3n2)CCCC4)c1 | inconclusive: 18.4 µM [activator, single point] |  |
| S=c1[nH]nc(-c2ccncc2)n1/N=C/c1cccc(Cl)c1 |  | inactive: -7.27% |
| Cc1c(NC(=O)c2cc3c(s2)CCCC3)c(=O)n(-c2ccccc2)n1C | inconclusive: 16.4 µM [activator, partial curve, poor fit] |  |
| CC1CCN(C(=O)COC(=O)c2cccs2)CC1 | inconclusive: 16.4 µM [activator, partial curve] |  |
| CCOc1ccc(-n2c(C)c(C(C)=O)c3cc(OCC(N)=O)ccc32)cc1 | inconclusive: 20.6 µM [inhibitor, partial curve, poor fit] |  |
| CCOC(=O)C(Cc1c[nH]c2ccccc12)NC(=O)c1ccccc1Br (stereo not drawn) | inconclusive: 23.1 µM [activator, partial curve, poor fit] |  |
| CC(C)Oc1ccc(C(=O)Nc2ccc(N3CCCC3)cc2)cc1 | inconclusive: 11.6 µM [activator, partial curve, poor fit] |  |

5 structures out of the list, arranged by count of non-hydrogen atoms, largest number first:

| Compound | Potency | activity change, negative = inhibition |
| --- | --- | --- |
| CC(=O)c1c(C)[nH]c(C(=O)CN2CCN(S(=O)(=O)c3ccccc3F)CC2)c1C | active: 11.6 µM |  |
| Clc1cccc(-c2cc3nc4c(c(N5CCNCC5)n3n2)CCCC4)c1 | inconclusive: 18.4 µM [activator, single point] |  |
| O=C(COc1ccc2c3c(c(=O)oc2c1)CCC3)N1CCCCC1 | inconclusive: 14.6 µM [activator, partial curve] |  |
| CCOC(=O)c1c(NC(C)=O)sc2c(OC)c(Br)ccc12 |  | inactive: -5.37% |
| CC1CCN(C(=O)COC(=O)c2cccs2)CC1 | inconclusive: 16.4 µM [activator, partial curve] |  |

Continuation:

| Compound | Potency | activity change, negative = inhibition |
| --- | --- | --- |
| Cc1ccc(OCc2nc(-c3ccccn3)no2)cc1 | inconclusive: 3.66 µM [activator, partial curve] |  |
| COc1ccc(C(C(=O)NC2CCCC2)N(C(=O)c2ccco2)c2ccc3c(c2)OCO3)cc1OC (stereo not drawn) | inconclusive: 0.58 µM [inhibitor, partial curve, poor fit] |  |
| CCOC(=O)C1C(=O)C=C(Nc2ccccc2F)CC1c1ccccc1 (stereo not drawn) | inconclusive: 7.31 µM [activator, partial curve] |  |
| COc1ccc2cc3[n+](cc2c1OC)CCc1cc2c(cc1-3)OCO2 | inconclusive: 0.231 µM [inhibitor, partial curve, poor fit] |  |
| O=C(c1ccncc1)N1CCN(C(=O)c2cccc3ccccc23)CC1 |  | inactive: -12.7% |
| CNC(=O)NC(=O)COc1ccc2oc3c(c2c1)CCCC3 | inconclusive: 14.6 µM [activator, partial curve] |  |
| COc1cc(C(=O)Nc2ccc(-c3nc4cc(C)ccc4o3)c(O)c2)cc(OC)c1OC | inconclusive: 23.1 µM [inhibitor, single point] |  |
| C=C(C)CSc1nc2ccccc2[nH]1 | inconclusive: 18.4 µM [activator, single point] |  |
| COc1cccc(C(=O)Nc2cc(C(F)(F)F)ccc2Cl)c1 |  | inactive: 6.03% |
| O=C(Nc1ccc(Cl)c(S(=O)(=O)N2CCCCC2)c1)c1ccncc1 | inconclusive: 11.6 µM [inhibitor, partial curve] |  |
| c1cnc(N2CCN(c3ccc4ccccc4n3)CC2)nc1 | inconclusive: 2.59 µM [activator, partial curve] |  |
| COC(=O)[C@@]1(Cc2ccc(OC)cc2)[C@H]2c3cc(C(=O)N4CCCC4)n(CCn4cc([N+](=O)[O-])nc4C)c3C[C@H]2CN1C(=O)c1ccccc1 |  | inactive: 22.5% |
| N#CC(c1ccccc1)c1ccc2c(C(F)(F)F)cc(C(F)(F)F)nc2n1 (stereo not drawn) | inconclusive: 6.51 µM [inhibitor, partial curve] |  |
| C[C@H](CO)N1C[C@H](C)[C@@H](CN(C)S(C)(=O)=O)Oc2c(NC(=O)Cc3ccccc3)cccc2C1=O | inconclusive: 23.1 µM [activator, partial curve, poor fit] |  |
| CCOc1ccc2nc(SCC(=O)NNC(=O)c3ccco3)c(C)cc2c1 | inconclusive: 2.31 µM [inhibitor, partial curve, poor fit] |  |
| COc1cc(OC)c(NC(=O)CCNC(=O)Cn2cnc3ccccc3c2=O)cc1Cl |  | inactive: 0.0764% |
| O=C1NC(=O)C2(CCCc3ccccc32)N1 (stereo not drawn) |  | inactive: -2.56% |
| COc1ccccc1NS(=O)(=O)c1cccc(-n2c(O)c(C=Nc3ccccc3C(=O)O)c3ccccc3c2=O)c1 | inconclusive: 4.11 µM [inhibitor, partial curve, poor fit] |  |
| O=C(NCCc1ccccn1)c1cccc(S(=O)(=O)N2CCc3ccccc32)c1 | inconclusive: 18.3 µM [inhibitor, single point] |  |
| COc1ccc(-c2cc(=O)c3ccccc3[nH]2)cc1 |  | inactive: 1.64% |
| NS(=O)(=O)c1ccc(CCNC(=O)CNCCc2ccccc2)cc1 |  | inactive: 1.57% |
| Cc1c(Cl)cccc1N/C(SCC(=O)N1CCCCCC1)=C(/C#N)c1nc2ccccc2s1 | inconclusive: 32.6 µM [inhibitor, partial curve, poor fit] |  |
| COc1ccccc1C(O)Cc1nc2ccccc2n1C (stereo not drawn) | inconclusive: 16.4 µM [activator, partial curve] |  |

| Compound | Potency | activity change, negative = inhibition |
| --- | --- | --- |
| COC(=O)C(=Cc1ccccc1[N+](=O)[O-])C(=O)OC | active: 23.1 µM |  |
| Cc1cc(NC(=O)CS(=O)(=O)c2cn(Cc3cccc(F)c3)c3ccccc23)no1 | active: 20.6 µM |  |
| CCNc1nc(Oc2ccc(OC)cc2)cc(C(F)(F)F)n1 |  | inactive: 8.04% |
| COc1ccc(-c2cc3ccc(OCc4nn[nH]n4)cc3oc2=O)cc1 | inconclusive: 18.4 µM [activator, partial curve] |  |
| O=C(CCc1nnc2n(Cc3ccccc3)c(=O)c3ccccc3n12)NCCCN1CCCCC1 |  | inactive: 12.9% |
| CCN1C(=O)[C@H]2[C@@H](c3ccc(-c4cc(C(C)=O)cs4)cc3)N3CCCC[C@@]3(C(=O)OC)[C@H]2C1=O | inconclusive: 3.16 µM [inhibitor, single point] |  |
| Cc1cc(-c2nnc3n2N=C(c2ccccc2)CS3)n[nH]1 | inconclusive: 23.1 µM [activator, single point] |  |
| CCSC1=C(C#N)C2(CCCCC2)C2=C(CC(C)(C)CC2=O)N1 | inconclusive: 14.6 µM [activator, partial curve, poor fit] |  |
| N#Cc1ccccc1S(=O)(=O)N1CCN(C(=O)c2cn(-c3ccccc3)nc2-c2cccnc2)CC1 | inconclusive: 11.6 µM [inhibitor, partial curve, poor fit] |  |
| Cc1ccc(-c2cc(C(=O)O)c3ccccc3n2)c(C)c1 | inconclusive: 20.6 µM [activator, single point] |  |
| COC(=O)c1scc(C)c1NC(=O)Nc1ccccc1 | inconclusive: 29.1 µM [activator, single point] |  |
| COc1ccc(/C=N\NC(=O)c2ccc(Cn3cc(Br)c([N+](=O)[O-])n3)o2)c(OC)c1C | inconclusive: 13 µM [inhibitor, partial curve] |  |
| O=C(Nc1ccccc1)c1ccc(=O)[nH]n1 |  | inactive: 27.2% |
| Cc1nc2ncccn2c1-c1csc(NCc2ccco2)n1 | inconclusive: 8.2 µM [activator, partial curve] |  |
| COc1ccc(NC(=O)N(C)C[C@H]2Oc3ccc(NC(=O)NC(C)C)cc3C(=O)N([C@H](C)CO)C[C@@H]2C)cc1 | inconclusive: 10.3 µM [activator, partial curve] |  |
| Cc1cccc(/C=N/NC(=O)c2cccc(Cl)c2)n1 |  | inactive: 8.62% |
| Nc1sc(-c2ccccc2)cc1C(=O)N/N=C/c1ccc(Cl)cc1 |  | inactive: -2.79% |
| CCn1c(=N)n(CC(=O)c2ccc(Cl)c(Cl)c2)c2ccccc21 | inconclusive: 11.6 µM [activator, partial curve] |  |
| CCN(CC)S(=O)(=O)c1ccc(OC(C)C)c(NC(=O)c2c3c(nc4ccccc24)CCN(Cc2ccccc2)C3)c1 | active: 5.8 µM |  |
| COc1ccc(NS(=O)(=O)c2cc(NC(=O)C3CCCCC3)ccc2N2CCOCC2)cc1 | active: 20.6 µM |  |
| Cc1ccc(NC(=O)CSc2nnc(-c3cnccn3)n2Cc2ccco2)cc1C | inconclusive: 16.4 µM [inhibitor, partial curve, poor fit] |  |
| O=C(/C=C/c1ccco1)c1ccccc1O | inconclusive: 18.3 µM [activator, single point] |  |
